Data published in doi:10.1101/811059.

The chains behind the UniProt entries cited, without tags or fusion partners. Where a name states a change or a piece, a line headed by the entry shows the natural chain unless it says otherwise.
UniProt Q9Z5D9: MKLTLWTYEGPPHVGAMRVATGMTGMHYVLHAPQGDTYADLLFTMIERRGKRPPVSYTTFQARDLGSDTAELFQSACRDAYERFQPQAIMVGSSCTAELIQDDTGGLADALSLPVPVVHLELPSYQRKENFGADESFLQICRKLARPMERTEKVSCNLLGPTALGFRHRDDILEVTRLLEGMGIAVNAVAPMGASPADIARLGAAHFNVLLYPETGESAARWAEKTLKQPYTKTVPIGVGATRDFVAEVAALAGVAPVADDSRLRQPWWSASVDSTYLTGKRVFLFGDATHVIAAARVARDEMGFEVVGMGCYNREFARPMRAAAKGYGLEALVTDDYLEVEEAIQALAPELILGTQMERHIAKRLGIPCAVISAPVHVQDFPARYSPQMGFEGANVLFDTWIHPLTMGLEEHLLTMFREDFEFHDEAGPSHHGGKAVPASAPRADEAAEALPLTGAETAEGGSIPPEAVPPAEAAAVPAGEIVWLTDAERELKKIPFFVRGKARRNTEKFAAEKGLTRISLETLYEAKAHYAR
UniProt Q9RFD4: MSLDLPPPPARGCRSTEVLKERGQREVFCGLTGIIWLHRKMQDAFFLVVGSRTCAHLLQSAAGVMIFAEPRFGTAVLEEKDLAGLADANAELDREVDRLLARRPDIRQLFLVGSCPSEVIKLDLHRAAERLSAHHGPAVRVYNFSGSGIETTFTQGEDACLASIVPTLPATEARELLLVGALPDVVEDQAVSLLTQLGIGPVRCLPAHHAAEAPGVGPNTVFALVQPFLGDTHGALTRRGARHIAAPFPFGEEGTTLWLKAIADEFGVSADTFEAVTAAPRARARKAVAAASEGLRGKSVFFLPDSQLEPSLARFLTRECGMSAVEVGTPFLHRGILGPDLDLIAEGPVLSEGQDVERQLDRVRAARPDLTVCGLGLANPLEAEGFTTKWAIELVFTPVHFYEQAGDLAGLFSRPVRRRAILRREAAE

Molecular target: BchB (Rhodobacter sphaeroides) (UniProt Q9Z5D9)
Assay: co-purification on Ni2+-NTA

- binding: binds
Substance: BchN (from UniProt Q9RFD4)

These are yes or no findings as the source states them, for the method shown. In cells and extracts the contact can be indirect. Binding can be weak; no strength is given.
